Values of other authors as cited in patent publication US4883661A, “Use of arginine as an lymphokine synergist” (priority 1987, dated 1989).

Settings: given prior to or concomitantly with amino acids, glycine or ammonia; rats; cited from earlier work

NCCC[C@H](N)C(=O)O [ornithine]
protection against toxic effects of hyperammonemia: share the "detoxifying" effects of arginine
